# Laboratory results published in PubChem BioAssay AID248 (DTP/NCI, 2004).
# The list does not hold the whole screen: it gathers tests that were run many times, whatever their T/C, doses with no T/C, and many T/C values between a quarter and a half above the control. Other doses and runs of a compound stand elsewhere. T/C gives the treated animals as a percentage of the vehicle group. Some doses have a count of surviving animals in place of a T/C: the source files T/C as zero there, which appears to mark a toxic dose or a test without result, not a measured value. Some doses without a T/C left all or most animals alive at the check, yet need not have been tolerated: the source hardly ever lists a survival T/C far under the control, and the zero likely stands for such cases as well. Survivors were counted at the toxicity check, usually on the fifth day, unless a day is given; later deaths do not show. Schedules are NCI's codes, read here as Q, the interval in days (D) or hours (H), X, the number of doses. Some schedule codes hold Z or #, which are not explained here. For survival time, the PubChem record calls one and a half times the control and up active, and a quarter to a half above the control has no call in these data; cut-offs in other NCI protocols can differ.
# System: L1210 leukemia ip in BDF1 mice, survival T/C
# Experiment: NCI In Vivo Anticancer Drug Screen. Data for tumor model L1210 Leukemia (intraperitoneal) in B6D2F1 (BDF1) mice
# Conditions: T/C endpoint: mean survival time, higher T/C = longer survival
# [1] = dose: 400.0 mg/kg/injection, schedule: Q04DX003 (ip), vehicle: saline with Tween-80
# [2] = dose: 200.0 mg/kg/injection, schedule: Q01DX009 (ip), vehicle: saline with Tween-80
# [3] = dose: 400.0 mg/kg/injection, schedule: Q01DX009 (ip), vehicle: Klucel (hydroxypropylcellulose) (HPC)
# [4] = dose: 400.0 mg/kg/injection, schedule: Q04DX003 (ip), vehicle: Klucel (hydroxypropylcellulose) (HPC)
# [5] = dose: 400.0 mg/kg/injection, schedule: Q01DX001 (ip), vehicle: carboxymethylcellulose (CMC)
# [6] = dose: 300.0 mg/kg/injection, schedule: Q01DX001 (ip), vehicle: other
# [7] = dose: 200.0 mg/kg/injection, schedule: Q04DX003 (ip), vehicle: saline
# [8] = dose: 400.0 mg/kg/injection, schedule: Q04DX003 (ip), vehicle: saline
# [9] = dose: 100.0 mg/kg/injection, schedule: Q01DX001 (ip), vehicle: saline
# [10] = dose: 200.0 mg/kg/injection, schedule: Q01DX001 (ip), vehicle: saline
# [11] = dose: 100.0 mg/kg/injection, schedule: Q04DX003 (ip), vehicle: Klucel (hydroxypropylcellulose) (HPC)
# [12] = dose: 200.0 mg/kg/injection, schedule: Q04DX003 (ip), vehicle: Klucel (hydroxypropylcellulose) (HPC)
compound,measurement,setting,value
CCC[CH2][Pb]([Cl])([CH2]CCC)[CH2]CCC,survivor count,"dose: 12.5 mg/kg/injection, schedule: Q01DX009 (ip), vehicle: saline with Tween-80",2 of 6
same,survivor count,"dose: 25.0 mg/kg/injection, schedule: Q01DX009 (ip), vehicle: saline with Tween-80",2 of 6
same,survivor count,"dose: 100.0 mg/kg/injection, schedule: Q04DX003 (ip), vehicle: saline with Tween-80",0 of 6
same,survivor count,"dose: 200.0 mg/kg/injection, schedule: Q04DX003 (ip), vehicle: saline with Tween-80",0 of 6
same,survivor count,[1],0 of 6
O=C(CC(O)(C(F)(F)F)C(F)(F)F)c1cccs1,survivor count,[2],3 of 6
same,survivor count,[1],5 of 6
CC[n+]1ccc(Nc2ccc(NC(=O)c3ccc(N)cc3)cc2)cc1,survivor count,"dose: 100.0 mg/kg/injection, schedule: Q01DX009 (ip), vehicle: Klucel (hydroxypropylcellulose) (HPC)",3 of 6
same,survivor count,"dose: 200.0 mg/kg/injection, schedule: Q01DX009 (ip), vehicle: Klucel (hydroxypropylcellulose) (HPC)",0 of 6
same,survivor count,[3],0 of 6
CCN(CC)Cc1ncccc1O,survivor count,[4],0 of 6
Oc1ccc(F)c2cccnc12,survivor count,"dose: 100.0 mg/kg/injection, schedule: Q01DX001 (ip), vehicle: carboxymethylcellulose (CMC)",2 of 4
same,survivor count,"dose: 200.0 mg/kg/injection, schedule: Q01DX001 (ip), vehicle: carboxymethylcellulose (CMC)",0 of 4
same,survivor count,[5],0 of 4
CC(C)N=Cc1ccccc1O.CC(C)N=Cc1ccccc1O.[Cu],survivor count,"dose: 150.0 mg/kg/injection, schedule: Q01DX001 (ip), vehicle: other",2 of 6
same,survivor count,[6],0 of 6
S=C1CCNCC1,survivor count,[7],2 of 6
same,survivor count,[8],0 of 6
C=CCC(CC)C(=O)NC(=O)N1CCCc2ccccc21 (stereo not drawn),survivor count,"dose: 400.0 mg/kg/injection, schedule: Q01DX001 (ip), vehicle: saline with Tween-80",5 of 6
CCCCCCCCN1N=CC(CC)C1CCC (stereo not drawn),survivor count,[5],4 of 4
CCCCOC(=O)C=O,survivor count,[2],2 of 3
COc1ccc2c(=O)c3c(O)cc(OC)cc3oc2c1,survivor count,[9],6 of 6
same,survivor count,[10],6 of 6
CC1(C)OC(=O)CC1c1ccccc1 (stereo not drawn),survivor count,[9],2 of 6
same,survivor count,[10],0 of 6
same,survivor count,"dose: 400.0 mg/kg/injection, schedule: Q01DX001 (ip), vehicle: saline",0 of 6
COCC(=N)C(C#N)(OC)C(=O)c1ccccc1 (stereo not drawn),survivor count,[6],1 of 6
C[P+]1(CCc2ccc(Cl)cc2)CC=CC1,survivor count,[7],1 of 6
same,survivor count,[8],1 of 6
COc1ccc([N+](=O)[O-])cc1CNCCBr,T/C,"dose: 100.0 mg/kg/injection, schedule: Q01DX001 (ip), vehicle: Klucel (hydroxypropylcellulose) (HPC)",125 % of control
same,survivor count,"dose: 200.0 mg/kg/injection, schedule: Q01DX001 (ip), vehicle: Klucel (hydroxypropylcellulose) (HPC)",0 of 6
same,survivor count,"dose: 400.0 mg/kg/injection, schedule: Q01DX001 (ip), vehicle: Klucel (hydroxypropylcellulose) (HPC)",0 of 6
CC(=O)OCCC/C(=C\c1ccc(Br)cc1)[N+](=O)[O-],survivor count,[5],3 of 6
C1=CCC2CSCC2C1 (stereo not drawn),survivor count,"dose: 300.0 mg/kg/injection, schedule: Q01DX009 (ip), vehicle: saline sonified",0 of 6
CN(C)C(=S)[S][Pb]([c]1ccccc1)([c]1ccccc1)[c]1ccccc1,survivor count,"dose: 100.0 mg/kg/injection, schedule: Q01DX001 (ip), vehicle: steroid suspending solution",0 of 6
same,survivor count,"dose: 200.0 mg/kg/injection, schedule: Q01DX001 (ip), vehicle: steroid suspending solution",0 of 6
same,survivor count,"dose: 400.0 mg/kg/injection, schedule: Q01DX001 (ip), vehicle: steroid suspending solution",0 of 6
O=C1c2cccc3cccc(c23)C(=O)N1CCCCCCCCCCN1C(=O)c2cccc3cccc(c23)C1=O,survivor count,"dose: 200.0 mg/kg/injection, schedule: Q01DX009 (ip), vehicle: gum acacia",6 of 6
COC(=O)C(c1ccccc1)C1CCCCN1 (stereo not drawn),survivor count,"dose: 100.0 mg/kg/injection, schedule: Q01DX009 (ip), vehicle: saline",0 of 6
same,survivor count,[7],4 of 4
same,survivor count,[8],0 of 4
CN(C)C(SCc1c(Cl)c(Cl)c(Cl)c(Cl)c1Cl)=[N+](C)C,survivor count,"dose: 25.0 mg/kg/injection, schedule: Q04DX002 (ip), vehicle: saline",3 of 3
same,survivor count,"dose: 50.0 mg/kg/injection, schedule: Q04DX002 (ip), vehicle: saline",2 of 3
same,survivor count,"dose: 100.0 mg/kg/injection, schedule: Q04DX002 (ip), vehicle: saline",0 of 3
same,survivor count,"dose: 200.0 mg/kg/injection, schedule: Q04DX002 (ip), vehicle: saline",1 of 3
same,survivor count,"dose: 400.0 mg/kg/injection, schedule: Q04DX002 (ip), vehicle: saline",0 of 3
O=C(O)c1c(Br)c(Br)c(Br)c(Br)c1C(=O)Nc1ccc([N+](=O)[O-])cc1,survivor count,[3],4 of 6
N#CCCc1ccc(O)cc1,survivor count,"dose: 400.0 mg/kg/injection, schedule: Q04DX003 (ip), vehicle: gum acacia",1 of 6
c1ccc(COCCNCCOCc2ccccc2)cc1,survivor count,[11],1 of 6
same,survivor count,[12],0 of 6
same,survivor count,[4],0 of 6
CC1=C(O)c2ccccc2C(=O)C1=O,survivor count,"dose: 100.0 mg/kg/injection, schedule: Q01DX Z (ip), vehicle: other",5 of 6
same,survivor count,"dose: 150.0 mg/kg/injection, schedule: Q01DX Z (ip), vehicle: other",0 of 6
same,survivor count,"dose: 200.0 mg/kg/injection, schedule: Q01DX Z (ip), vehicle: other",0 of 6
Nc1nc(=S)c2[nH]c(N=Nc3ccc(S(=O)(=O)O)cc3)nc2[nH]1,T/C,"dose: 25.0 mg/kg/injection, schedule: Q04DX003 (ip), vehicle: Klucel (hydroxypropylcellulose) (HPC)",140 % of control
same,T/C,[11],132 % of control
same,survivor count,[12],3 of 6
same,survivor count,[4],1 of 6
Nc1ccc(-c2ccccc2)cc1Br,survivor count,"dose: 60.0 mg/kg/injection, schedule: Q01DX001 (ip), vehicle: carboxymethylcellulose (CMC)",2 of 6
same,survivor count,"dose: 75.0 mg/kg/injection, schedule: Q01DX001 (ip), vehicle: carboxymethylcellulose (CMC)",0 of 6
same,survivor count,"dose: 150.0 mg/kg/injection, schedule: Q01DX001 (ip), vehicle: carboxymethylcellulose (CMC)",0 of 6
same,survivor count,"dose: 300.0 mg/kg/injection, schedule: Q01DX001 (ip), vehicle: carboxymethylcellulose (CMC)",0 of 6
CC(=O)/C=C(/C)O,survivor count,[8],6 of 6
